# Assay results: PubChem BioAssay AID662 (National Center for Advancing Translational Sciences (NCATS), 2007)
# Values joined by “and” are separate entries in the source; they are usually repeats but may differ in a detail not shown here. Equal entries are not always repeated. The list shows a part of the results. These are further read-outs of the screen, such as a control signal, another cell line or another target. No call is given for them. Compounds called inactive in the main read-out are mostly missing here. The note in brackets gives the kind of curve behind each potency; many fits are weak.
# Test: Cell signaling CRE-BLA (Fsk stim)
# Settings: CHO CRE-bla reporter (cAMP response element driving beta-lactamase), forskolin EC10, beta-lactamase ratio; measured here: 460 nm blue channel
# Outline: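 qHTS titration format; CRE-bla CHO reporter; stimulus EC10 NKH 477, a water-soluble forskolin. Read: CCF4 460/530 nm ratio. Potency expressed as AC50 for activators or inhibitors.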
row,SMILES,AC50
1,CCOCCCNC(=O)c1ccc2c(c1)ncn2C1CCCC1,"2.51 µM [rising, single point]"
2,CC1=C(C(=O)Nc2ccccc2)C(c2ccco2)C(C#N)=C(SCC(=O)OC(C)C)N1 (stereo not drawn),"25.1 µM [falling, single point]"
3,COc1ccc2nc3c(cc2c1)Cc1ccccc1-3,"25.1 µM [rising, single point]"
4,Nc1nc(CSc2nc3ccccc3[nH]2)nc(N2CCOCC2)n1,"12.6 µM [rising, single point]"
5,Cc1cccc(S(=O)(=O)C(C#N)c2nc3ccccc3nc2N2CCOCC2)c1 (stereo not drawn),"20 µM [rising, single point]"
6,CCOc1ccc2nc(NC(=O)Nc3cccs3)sc2c1,"25.1 µM [falling, single point]"
7,c1ccc(N=P(c2nc3ccccc3o2)(N2CCOCC2)N2CCOCC2)cc1,"5.01 µM [falling, single point]"
8,COC(=O)C(C)NC(=O)C12CC3CC(CC(C3)C1)C2 (stereo not drawn),"1.26 µM [falling, partial curve]"
9,Cc1nc(-c2cccc(N)c2)cs1,"12.6 µM [rising, single point]"
10,COc1ccc(Oc2ncc3nc(-c4ccccc4)c(=O)n(Cc4cccs4)c3n2)cc1,"12.6 µM [rising, partial curve]"
11,Cc1cc(C(F)(F)F)nc(NCc2cccnc2)n1,"10 µM [rising, single point]"
12,CCN1CCCC1CNC(=O)c1cc2c(=O)n(C)c3ccccc3c2n1C (stereo not drawn),"6.31 µM [rising, partial curve]"
13,CC1=C(C(=O)Nc2ccccc2C)C(c2ccc(C)o2)C2=C(CCCC2=O)N1 (stereo not drawn),"10 µM [falling, single point]"
14,COc1cc(C(=O)OCCCN2CCCN(CCCOC(=O)c3cc(OC)c(OC)c(OC)c3)CC2)cc(OC)c1OC,"31.6 µM [rising, single point] and 10 µM [rising, partial curve, poor fit]"
15,COCCn1c(C)cc(C(=O)CSc2nncn2-c2ccccc2)c1C,"0.398 µM [falling, partial curve]"
16,COc1ccc(C(=O)N2CCCCC2)cc1S(=O)(=O)Nc1ccccc1,"3.16 µM [falling, partial curve, poor fit]"
17,COc1ccc(-n2c(=O)c(-c3cc(F)cc(F)c3)nc3cnc(N(C)C)nc32)cc1,"3.16 µM [rising, partial curve]"
18,COc1ccc(OC)c2[nH]c(=O)c(CCNC(C)=O)cc12,"3.98 µM [falling, full curve]"
19,COc1ccc(CN2C(=O)c3cccnc3C2Nc2cc(Cl)c(OC)cc2OC)cc1 (stereo not drawn),"0.794 µM [rising, full curve]"
20,COC(=O)c1ccc(CSc2ccc3nnc(-c4cccc(F)c4)n3n2)o1,"3.98 µM [rising, partial curve]"
21,O=C(CSc1nnc(-c2ccccc2)o1)c1nnc(-c2ccccc2)o1,"5.01 µM [falling, single point]"
22,O=C(O)c1ccc(SSc2ccc(C(=O)O)cn2)nc1,"5.01 µM [rising, single point]"
23,O=C1c2oc3ccccc3c(=O)c2C(c2ccc(Br)cc2)N1c1ncccn1 (stereo not drawn),"3.16 µM [falling, partial curve]"

row,SMILES,AC50
1,O=C1Nc2ccccc2C12Nc1ccccc1S2 (stereo not drawn),"3.16 µM [falling, full curve, poor fit]"
2,Cc1cc(C)c2c(N)c(S(=O)(=O)c3ccccc3)sc2n1,"7.94 µM [rising, partial curve]"
3,CCCn1c(C)nc2c(N3CCCN(Cc4ccccc4)CC3)nc(C)nc21,"12.6 µM [rising, partial curve]"
4,Cc1sc2ncnc(SC(C)C#N)c2c1C (stereo not drawn),"5.01 µM [rising, partial curve]"
5,COc1ccc(OCC(O)Cn2c(Br)nc3c2c(=O)[nH]c(=O)n3C)cc1 (stereo not drawn),"12.6 µM [rising, partial curve]"
6,CC1=C(C(=O)OCc2ccc3c(c2)OCO3)C(c2ccccc2)NC(=O)N1 (stereo not drawn),"12.6 µM [falling, partial curve]"
7,COc1cccc(Cn2c(=O)c(-c3cccs3)nc3cnc(N4CCN(C)CC4)nc32)c1,"1.26 µM [rising, full curve]"
8,CCCn1c(SCC(=O)NCc2cccs2)nc2c1c(=O)n(C)c(=O)n2C,"20 µM [rising, single point]"
9,CNS(=O)(=O)c1ccc(NC(=O)C(CCSC)NC(N)=O)cc1 (stereo not drawn),"1.58 µM [falling, single point]"
10,CCC(C)Sc1nc2c(cnn2-c2ccc(C)c(C)c2)c(=O)[nH]1 (stereo not drawn),"2.51 µM [rising, full curve]"
11,COc1cc2c(C#N)c(N3CCCCC3)nc(N)c2c(N)n1,"12.6 µM [rising, partial curve]"
12,CC(C)(C)NC(=O)NC(=O)COC(=O)c1ccco1,"0.126 µM [falling, partial curve, poor fit]"
13,O=C(CSc1nnc(Cn2c(=O)sc3ccccc32)n1CCc1ccccc1)N1CCOCC1,"25.1 µM [rising, single point]"
14,Cc1cccc(Nc2ncnc3nc[nH]c23)c1,"1.26 µM [rising, full curve]"
15,O=C1C(C=NCCCn2ccnc2)=C(O)c2ccccc21,"5.01 µM [falling, single point]"
16,CCOc1ccc(C(=O)CCNC(Cc2cnc[nH]2)C(=O)O)cc1 (stereo not drawn),"0.794 µM [falling, partial curve, poor fit]"
17,COc1ccc(OC)c(NS(=O)(=O)c2ccc3c(c2)CCC(=O)N3)c1,"0.0631 µM [rising, full curve, poor fit]"
18,CCOC(=O)c1ccccc1NC(=O)Cn1cnc2c(cnn2-c2ccc(OC)cc2)c1=O,"25.1 µM [falling, single point]"
19,CCCn1nc(C(=O)Nc2cccc(C(=O)OC)c2)c2ccccc2c1=O,"10 µM [rising, partial curve]"
20,COC(=O)c1ccc2c(=O)n(CCCCCC(=O)N3CCN(c4ccccc4)CC3)c(=O)[nH]c2c1,"6.31 µM [falling, partial curve, poor fit]"
21,O=C(CC1(O)C(=O)Nc2cc(Cl)cc(Cl)c21)c1ccccc1O (stereo not drawn),"3.98 µM [falling, full curve, poor fit]"
22,c1coc(-c2nc3ccccc3nc2-c2ccco2)c1,"12.6 µM [rising, partial curve]"
23,Cc1cc2c3nonc3ccc2n1C,"20 µM [rising, single point]"

# As entered above.
# CC(C)(C)NC(=O)NC(=O)COC(=O)c1ccco1 – AC50: 0.126 µM [falling, partial curve, poor fit]
# COc1ccc(CN2C(=O)c3cccnc3C2Nc2cc(Cl)c(OC)cc2OC)cc1 (stereo not drawn) – AC50: 0.794 µM [rising, full curve]

# (listing goes on)

row,SMILES,AC50
1,CCCCNC(=O)C(C#N)c1nc2ccccc2nc1N1CCCC1 (stereo not drawn),"3.98 µM [rising, partial curve]"
2,COc1cccc(C(=O)OCn2nnc3ccccc3c2=O)c1,"15.8 µM [rising, single point]"
3,COc1cc2nc(COc3ccc(C#N)cc3)n(CC#N)c(=O)c2cc1OC,"10 µM [rising, partial curve]"
4,CC(Oc1ccccc1)C(=O)Nc1ccc(C(N)=O)cc1 (stereo not drawn),"0.00501 µM [falling, full curve, poor fit]"
5,Clc1ccc(Cl)c2sc(N3CCOCC3)nc12,"0.316 µM [rising, full curve, poor fit]"
6,CCOCC(=O)Nc1c(C(=O)OCC)oc2ccccc12,"6.31 µM [rising, partial curve]"
7,O=C(Cc1ccc(-n2cnnn2)cc1)NC12CC3CC(CC(C3)C1)C2,"10 µM [rising, single point]"
8,Cc1csc2ncc(C(=O)NCc3ccc4c(c3)OCO4)c(=O)n12,"5.01 µM [rising, partial curve]"
9,Oc1ccc(-c2nc3ncccn3c2Nc2ccc3c(c2)OCO3)cc1,"0.0158 µM [falling, full curve, poor fit]"
10,CCn1c2ccccc2c2cc(NC(=O)COC(=O)Cc3cn4ccsc4n3)ccc21,"20 µM [rising, single point]"
11,Nc1ccc(CCS(N)(=O)=O)cc1,"5.01 µM [falling, single point]"
12,Clc1ccc2c(N3CCCC3)ccnc2c1,"7.94 µM [falling, partial curve]"
13,Cc1nc(NCCO)c2nc(-c3ccccc3)n(CCN(C)C)c2n1,"12.6 µM [rising, partial curve]"
14,Cc1ccc(CNC(=O)c2coc(=O)c3ccccc23)o1,"0.0251 µM [falling, full curve, poor fit]"
15,CCCC[C@@H]1C[C@H]1C(NC(=O)c1ccc(C(F)(F)F)cc1)c1ccc(C(=O)OC)cc1 (stereo partly drawn),"12.6 µM [rising, partial curve]"
16,Cc1cc(C)c2[nH]c(=O)c(C(c3nnnn3C(C)(C)C)N3CCN(C(=O)c4ccco4)CC3)cc2c1 (stereo not drawn),"3.98 µM [rising, single point]"
17,c1ccc(-c2nc(NCCCN3CCOCC3)c3ccccc3n2)cc1,"10 µM [rising, single point]"
18,Cc1cc(C)n2cc(CSc3nc4cc(Cl)ccc4o3)nc2n1,"3.16 µM [rising, partial curve]"
19,CCNC(=O)CSc1nc2ccccc2c(=O)n1OC,"5.01 µM [falling, single point]"
20,O=c1c(-c2ccccc2)nc2cncnc2n1Cc1ccccc1Cl,"12.6 µM [rising, partial curve]"
21,OC(COc1cccc(OCC(O)CN2CCOCC2)c1)CN1CCOCC1 (stereo not drawn),"3.98 µM [rising, single point]"
22,Cc1ccc(-c2cc(C(=O)NCc3ccco3)c3ccccc3n2)o1,"5.01 µM [falling, single point]"
